Experimental data: PubChem BioAssay AID686938 (Drosophila RNAi Screening Center, 2013)

Assay: 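Fly genes required for calcium entry once internal stores are emptied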 (primary screen)
Cells: Drosophila S2R+ cells
Knock-down reagent: long dsRNA against Drosophila genes, about 0.25 µg dsRNA per well, roughly 10,000 cells
Duration: 5 days of knock-down before the calcium assay
Treatment: thapsigargin (SERCA pump blocker) to empty calcium stores; entry signal taken 4 min after adding it
Measured: 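Duplicate raw fluo-4 intensities per well from a plate reader, at rest and four minutes after thapsigargin emptied calcium stores; entry-to-rest ratio filled for only some wells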
Direction: calcium entry signal: higher = stronger calcium signal after store depletion; entry to resting ratio: higher = more calcium entry relative to resting level; resting calcium signal: higher = higher resting calcium signal
Active means: 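Hit if the duplicate-averaged plate z-score for entry over resting signal is under −3; wells with weak total dye signal (Fmax z < −2) or more than 5 off-targets removed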
Calls: active = strongly reduced calcium entry; inactive = no strong reduction
The deposit covers about 23,000 reagents; below is a random part of those with a known target gene and a result. Of all reagents, 75 (0.33%) were called active. 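Raw plate signals without normalisation; calls rest on plate z-scores that were not deposited; ratio present for only 364 wells.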 Unmarked entries are inactive. The numbers tell different reagents against one gene apart. A plus sign joins genes that one reagent is predicted to hit. The record does not give: the dose of the treatment.

predicted target	reagent	calcium entry signal, replicate 1 (fluorescence units)	calcium entry signal, replicate 2 (fluorescence units)	entry to resting ratio	resting calcium signal, replicate 1 (fluorescence units)	resting calcium signal, replicate 2 (fluorescence units)
REG (GeneID 32274)	1	4.18e7	4.96e7		2.03e7	2.29e7
alpha-Est2 (GeneID 40908)	1	3.13e7	2.84e7		1.47e7	1.35e7
Pef (GeneID 36111)	1	4.57e7	4.08e7		1.88e7	1.90e7
ths (GeneID 36258)	1	3.18e7	3.75e7		1.84e7	2.11e7
ths (GeneID 36258)	2	3.75e7	4.57e7		1.72e7	1.76e7
Obp56e (GeneID 37267)	1	5.22e7	5.15e7		2.08e7	2.32e7
Su(z)3 (retired record) (GeneID 48315)	1	1.45e7	3.05e7		1.06e7	1.41e7
Su(z)3 (retired record) (GeneID 48315)	2	6.46e7	2.89e7		2.77e7	1.15e7
l(2)k09913 (GeneID 37661)	1	3.87e7			1.98e7	
CG13501 (GeneID 37510)	1	4.51e7	5.43e7		2.25e7	2.27e7
CG13202 (GeneID 36222)	1	3.02e7	3.47e7		1.57e7	1.78e7
Cpr67Fa1 (GeneID 39223)	1	2.57e7	3.48e7		1.48e7	1.57e7
CG14810 (GeneID 31131)	1	4.53e7	3.80e7		2.22e7	1.78e7
CG14810 (GeneID 31131)	2	3.75e7	5.12e7	2.1	1.79e7	1.97e7

Continued (2 carried over from the part before).
predicted target	reagent	calcium entry signal, replicate 1 (fluorescence units)	calcium entry signal, replicate 2 (fluorescence units)	entry to resting ratio	resting calcium signal, replicate 1 (fluorescence units)	resting calcium signal, replicate 2 (fluorescence units)
CG14810 (GeneID 31131)	1	4.53e7	3.80e7		2.22e7	1.78e7
CG14810 (GeneID 31131)	2	3.75e7	5.12e7	2.1	1.79e7	1.97e7
lectin-21Ca (GeneID 53552)	1	2.69e7	3.31e7		1.21e7	1.46e7
Tina-1 (GeneID 37989)	1	2.44e7			1.28e7	
Flacc (GeneID 32886)	1	3.71e7	3.89e7		1.74e7	1.71e7
CG10336 (GeneID 35122)	1	4.55e7			2.19e7	
CG10600 (GeneID 35142)	1	4.73e7			2.23e7	
Sclp (GeneID 32156)	1	4.05e7	4.45e7		1.82e7	2.08e7
Mys45A (GeneID 35925)	1	2.99e7	2.61e7		1.49e7	1.43e7
CG17377 (GeneID 33954)	1	3.75e7	4.27e7		2.04e7	2.03e7
CG17377 (GeneID 33954)	2	3.34e7			1.82e7	
CG17377 (GeneID 33954)	3	4.16e7	3.13e7		2.37e7	1.52e7
AP-1sigma (GeneID 42835)	1	2.87e7	2.52e7		1.43e7	1.20e7
CG8010 (GeneID 32921)	1	3.55e7	4.45e7		1.72e7	1.88e7
dmrt99B (GeneID 43495)	1	2.77e7	3.16e7		1.56e7	1.81e7
dmrt99B (GeneID 43495)	2	4.25e7	3.47e7		2.07e7	1.52e7
CG14949 (GeneID 38328)	1	3.77e7	4.99e7		1.85e7	2.05e7
CR18275 + CG13373	1	2.52e7	3.48e7	1.9	1.30e7	1.40e7
OSCP1 (GeneID 36300)	1	1.71e7	3.33e7		9.47e6	1.38e7
yellow-e2 (GeneID 41652)	1	3.96e7	6.49e7		1.89e7	8.16e7
colt (GeneID 33470)	1	4.16e7			2.26e7	
Mvk + CG33672 + spt4	1	4.61e7	6.00e7		2.11e7	2.56e7
Mvk + CG33672 + spt4	2	3.85e7	4.51e7		1.66e7	1.99e7
CG8230 (GeneID 35897)	1	3.10e7	3.86e7		1.49e7	1.83e7
CG8420 (GeneID 41097)	1	4.49e7	3.39e7		2.12e7	1.79e7
Su(P) (GeneID 39856)	1	5.65e7	8.74e7		2.56e7	2.92e7
Fs (GeneID 2768836)	1	2.21e7	2.23e7		1.03e7	1.04e7
Fs (GeneID 2768836)	2	3.45e7	4.60e7		1.77e7	2.15e7
